Test results published in patent US20040043498A1, “Reagent for determining singlet oxygen” (priority 2003, published 2004).

Assay: Measurement of singlet oxygen generated by naphthalene endoperoxide EP-1 (fluorescence)
Conditions: EP-1 increased from 0.1 mM to 0.5 mM and to 1.0 mM; 100 mM phosphate buffer pH 7.4, 0.1% DMSO, 37° C.

## Cc1c2ccccc2c(C)c2cc(-c3c4ccc(=O)cc-4oc4cc(O)ccc34)c(C(=O)O)cc12 [DMAX]
  Increase of fluorescence intensity: dependent on the generated amount of singlet oxygen
